The values that follow come from PMC11189467.

Chains of the proteins cited; added tags and fusions are not shown.
UniProt P62316: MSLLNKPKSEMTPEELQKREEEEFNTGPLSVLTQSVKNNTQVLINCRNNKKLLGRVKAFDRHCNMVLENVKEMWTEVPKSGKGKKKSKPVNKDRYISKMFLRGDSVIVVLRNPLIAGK
UniProt Q09472: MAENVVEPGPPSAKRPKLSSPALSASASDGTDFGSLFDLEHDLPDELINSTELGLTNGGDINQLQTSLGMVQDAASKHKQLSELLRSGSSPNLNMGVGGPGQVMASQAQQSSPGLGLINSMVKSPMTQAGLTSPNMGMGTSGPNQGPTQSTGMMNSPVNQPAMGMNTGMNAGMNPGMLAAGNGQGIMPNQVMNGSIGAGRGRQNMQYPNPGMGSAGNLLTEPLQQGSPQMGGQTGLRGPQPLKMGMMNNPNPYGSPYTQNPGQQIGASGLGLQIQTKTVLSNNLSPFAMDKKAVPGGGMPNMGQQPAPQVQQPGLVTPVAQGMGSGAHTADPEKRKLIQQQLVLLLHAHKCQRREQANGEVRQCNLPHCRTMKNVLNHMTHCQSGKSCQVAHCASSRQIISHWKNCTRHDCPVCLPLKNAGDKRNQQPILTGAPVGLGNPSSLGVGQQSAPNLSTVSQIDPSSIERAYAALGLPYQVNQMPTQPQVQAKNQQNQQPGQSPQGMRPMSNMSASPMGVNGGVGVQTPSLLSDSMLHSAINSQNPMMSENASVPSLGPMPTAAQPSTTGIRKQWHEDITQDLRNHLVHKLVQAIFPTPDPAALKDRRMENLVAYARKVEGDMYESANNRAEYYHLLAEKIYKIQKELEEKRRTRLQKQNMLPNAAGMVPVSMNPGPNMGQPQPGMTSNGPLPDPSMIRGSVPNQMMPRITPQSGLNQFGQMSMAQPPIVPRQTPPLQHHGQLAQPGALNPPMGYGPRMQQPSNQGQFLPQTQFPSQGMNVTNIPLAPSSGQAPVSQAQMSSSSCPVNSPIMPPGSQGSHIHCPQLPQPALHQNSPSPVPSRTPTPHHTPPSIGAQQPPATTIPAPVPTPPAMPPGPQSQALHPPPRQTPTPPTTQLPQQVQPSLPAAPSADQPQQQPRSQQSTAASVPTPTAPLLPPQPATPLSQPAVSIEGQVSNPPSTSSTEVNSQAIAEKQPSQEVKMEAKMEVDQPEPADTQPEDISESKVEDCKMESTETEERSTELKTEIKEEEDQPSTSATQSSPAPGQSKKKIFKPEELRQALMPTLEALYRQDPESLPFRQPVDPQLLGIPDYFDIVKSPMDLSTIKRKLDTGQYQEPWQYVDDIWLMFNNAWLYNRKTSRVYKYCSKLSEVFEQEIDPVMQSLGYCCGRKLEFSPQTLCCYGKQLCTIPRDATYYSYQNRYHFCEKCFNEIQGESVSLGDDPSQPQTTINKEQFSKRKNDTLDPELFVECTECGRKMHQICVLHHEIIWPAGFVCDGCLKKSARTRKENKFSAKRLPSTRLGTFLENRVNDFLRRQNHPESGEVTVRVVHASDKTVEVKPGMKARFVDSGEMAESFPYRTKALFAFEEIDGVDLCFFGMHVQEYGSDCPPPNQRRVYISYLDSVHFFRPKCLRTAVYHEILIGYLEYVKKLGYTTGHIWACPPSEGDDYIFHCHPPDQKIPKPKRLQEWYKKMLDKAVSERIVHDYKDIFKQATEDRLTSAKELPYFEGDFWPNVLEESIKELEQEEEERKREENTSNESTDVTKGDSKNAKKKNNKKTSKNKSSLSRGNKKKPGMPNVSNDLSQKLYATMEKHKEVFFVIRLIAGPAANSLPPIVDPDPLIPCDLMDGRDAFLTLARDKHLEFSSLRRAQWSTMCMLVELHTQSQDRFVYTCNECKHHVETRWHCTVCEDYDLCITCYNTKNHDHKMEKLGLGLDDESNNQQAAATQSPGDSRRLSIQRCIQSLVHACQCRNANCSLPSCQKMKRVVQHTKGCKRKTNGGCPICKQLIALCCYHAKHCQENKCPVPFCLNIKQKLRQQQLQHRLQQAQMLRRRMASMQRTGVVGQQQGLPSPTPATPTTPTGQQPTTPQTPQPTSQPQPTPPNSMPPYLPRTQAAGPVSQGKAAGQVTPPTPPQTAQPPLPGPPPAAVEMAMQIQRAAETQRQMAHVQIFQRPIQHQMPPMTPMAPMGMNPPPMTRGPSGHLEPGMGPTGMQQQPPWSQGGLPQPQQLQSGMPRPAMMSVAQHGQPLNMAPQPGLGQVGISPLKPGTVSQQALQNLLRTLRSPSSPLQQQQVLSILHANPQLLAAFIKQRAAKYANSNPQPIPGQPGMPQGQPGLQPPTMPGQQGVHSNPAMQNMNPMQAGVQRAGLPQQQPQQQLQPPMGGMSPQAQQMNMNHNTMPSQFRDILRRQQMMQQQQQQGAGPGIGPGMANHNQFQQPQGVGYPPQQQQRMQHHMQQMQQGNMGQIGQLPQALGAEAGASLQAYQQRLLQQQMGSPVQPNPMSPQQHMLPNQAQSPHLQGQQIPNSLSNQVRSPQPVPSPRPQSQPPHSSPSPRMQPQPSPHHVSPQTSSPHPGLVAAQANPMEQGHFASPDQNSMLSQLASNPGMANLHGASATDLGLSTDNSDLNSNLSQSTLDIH

The experiment deals with SmD2 (human (endogenous in HCCLM3)) (UniProt P62316). Kind of experiment: affinity purification with mass spectrometry; immunoprecipitation of SmD2 from HCCLM3 cells; eluted by glycine (0.1 M, pH 2.0), neutralised by HEPES, LC-MS/MS.

These are yes or no findings as the source states them, for the method shown. In cells and extracts the contact can be indirect. Here binding means that the protein was enriched with, or labelled near, the bait; the list need not be complete.

As for “acetyltransferase p300 (from UniProt Q09472 1-2414) (enzyme)”, the binding result is given as “binds”.
